{"source": "patent US10912816B2", "about": "(THE TRUSTEES OF COLUMBIA UNIVERSITY IN THE CITY OF NEW YORK, priority 2010, dated 2021)", "test": "peptide made by a vendor", "conditions": "whole synthesis, identity by LC/MS", "note": "Some peptides are written in HELM: one residue between dots, names in brackets for other building blocks, links after the first $."}
{"substance": "PEPTIDE1{N.W.T.P.Q.A.M.L.Y.L.K.G.A.Q.[am]}$$$$V2.0", "values": [{"measurement": "final HPLC purity", "value": ">99", "unit": "%"}]}
